# Measurements published in the supplement of paper PMC4604168 (melanoma cell lines).
# Some of the results follow. Many values rest on one well or one pass, so single values are uncertain.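 Imaging used 1,536-well plates; nuclei positive for cleaved PARP by antibody were divided by total DNA-stained nuclei to yield the apoptosis fraction. Doses for screening kept most cells viable, and cell lines differ markedly in resting and induced cleaved-PARP levels.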
# Key:
# Assay in all cases: cleaved PARP positive nuclei fraction relative to DMSO control; melanoma cells; higher = more apoptosis
# Conditions in all cases: library dose: low library concentration; 72 h
# [1] = tested on: 501Mel
# [2] = tested on: A101D
# [3] = tested on: A2058
# [4] = tested on: C32
# [5] = tested on: CBRC008 (line from a melanoma biopsy)
# [6] = tested on: CBRC014 (line from a melanoma biopsy)
# [7] = tested on: CBRC016 (line from a melanoma biopsy)
# [8] = tested on: CBRC017 (line from a melanoma biopsy)
SMILES,cleaved PARP positive nuclei fraction [1] [%],cleaved PARP positive nuclei fraction [2] [%],cleaved PARP positive nuclei fraction [3] [%],cleaved PARP positive nuclei fraction [4] [%],cleaved PARP positive nuclei fraction [5] [%],cleaved PARP positive nuclei fraction [6] [%],cleaved PARP positive nuclei fraction [7] [%],cleaved PARP positive nuclei fraction [8] [%]
"CS(=O)(=O)c1ccc(C(=O)Nc2ccc(Cl)c(-c3ccccn3)c2)c(Cl)c1 [vismodegib] + COc1cc2ncnc(Nc3ccc(Oc4ccccc4)cc3)c2cc1OC [SrcI1] (first compound 1 µM, partner dose 2 µM)",64.4,26.8,62.5,36.3,228,92.6,97.5,73.8
"Cn1cnc2c(F)c(Nc3ccc(Br)cc3Cl)c(C(=O)NOCCO)cc21 [selumetinib] + Oc1cc(-c2nc(-c3ccccc3)[nH]c2-c2ccncc2)ccc1Cl [L779450] (first compound 0.015 µM, partner dose 0.2 µM)",95.8,80.3,67.8,116,156,94.8,60.3,97.5
"CN(c1ncccc1CNc1nc(Nc2ccc3c(c2)CC(=O)N3)ncc1C(F)(F)F)S(C)(=O)=O + CCN(CC)CCCCNc1ncc2cc(-c3cc(OC)cc(OC)c3)c(NC(=O)NC(C)(C)C)nc2n1 [PD173074] (first compound 0.08 µM, partner dose 0.1 µM)",121,30.6,51.9,85.9,115,95,41,68
"CS(=O)(=O)c1ccc(C(=O)Nc2ccc(Cl)c(-c3ccccn3)c2)c(Cl)c1 [vismodegib] + O=C1NC(=O)/C(=C/c2ccc(-c3ccc(F)cc3O)o2)S1 [AS252424] (first compound 1 µM, partner dose 1 µM)",116,13.1,40.6,169,106,91.2,39.2,99
"COc1ccc(C2=N[C@@H](c3ccc(Cl)cc3)[C@@H](c3ccc(Cl)cc3)N2C(=O)N2CCNC(=O)C2)c(OC(C)C)c1 [Nutlin-3] + Cn1cc(/C=C2\C(=O)Nc3cccnc32)c2ccccc21 [GW441756] (first compound 0.1 µM, partner dose 0.4 µM)",71.2,55,150,254,44.8,87.1,40.1,98.2
"CCN(CC)CCNC(=O)c1c(C)[nH]c(/C=C2\C(=O)Nc3ccc(F)cc32)c1C [sunitinib] + COc1cc(N2CCC(N3CCN(C)CC3)CC2)ccc1Nc1ncc(Cl)c(Nc2ccccc2S(=O)(=O)C(C)C)n1 [NVP-TAE684] (first compound 0.4 µM, partner dose 0.08 µM)",391,62.3,53,92.5,164,84,58.4,67.1
"Cn1cnc2c(F)c(Nc3ccc(Br)cc3Cl)c(C(=O)NOCCO)cc21 [selumetinib] + c1cc(-c2cnn3cc(-c4ccc(OCCN5CCCCC5)cc4)cnc23)ccn1 [Dorsomorphin] (first compound 0.015 µM, partner dose 0.4 µM)",113,18.2,106,42.6,168,97,67.1,121
"NC1(c2ccc(-c3nc4ccn5c(=O)[nH]nc5c4cc3-c3ccccc3)cc2)CCC1 + COc1ccc(COc2ccc(Cc3cnc(N)nc3N)cc2OC)cc1 [GW2580] (first compound 0.4 µM, partner dose 1 µM)",84.3,48.1,108,92.1,138,81.9,68.9,86.3
"CN(c1ncccc1CNc1nc(Nc2ccc3c(c2)CC(=O)N3)ncc1C(F)(F)F)S(C)(=O)=O + O=C(O)C(=O)Nc1sc2c(c1C(=O)O)CCNC2 [TCS401] (first compound 0.08 µM, partner dose 1.66667 µM)",66.6,14.2,166,360,129,88.1,102,92.5
"CCCCCCCCc1ccc(CCC(N)(CO)CO)cc1 [fingolimod] + COC(=O)c1sccc1S(=O)(=O)Nc1ccc(Nc2ccccc2)cc1OC [GSK0660] (first compound 2 µM, partner dose 1 µM)",168,67.1,155,30.7,151,66.7,27.1,86
"CS(=O)(=O)c1ccc(C(=O)Nc2ccc(Cl)c(-c3ccccn3)c2)c(Cl)c1 [vismodegib] + COc1ccc(-c2ccc3c(N4CCOCC4)nc(N4C[C@@H](C)O[C@@H](C)C4)nc3n2)cc1CO [KU0063794] (first compound 1 µM, partner dose 0.02 µM)",62.1,16.8,77.7,158,289,196,114,238
